Laboratory results as given in the supplement of paper PMC10849652.
This is one part of the list.

The chains behind the UniProt entries cited, without tags or fusion partners. Where a name states a change or a piece, a line headed by the entry shows the natural chain unless it says otherwise.
UniProt Q99584: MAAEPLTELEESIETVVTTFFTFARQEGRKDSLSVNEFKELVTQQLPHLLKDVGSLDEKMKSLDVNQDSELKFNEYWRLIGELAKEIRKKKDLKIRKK
UniProt P23443: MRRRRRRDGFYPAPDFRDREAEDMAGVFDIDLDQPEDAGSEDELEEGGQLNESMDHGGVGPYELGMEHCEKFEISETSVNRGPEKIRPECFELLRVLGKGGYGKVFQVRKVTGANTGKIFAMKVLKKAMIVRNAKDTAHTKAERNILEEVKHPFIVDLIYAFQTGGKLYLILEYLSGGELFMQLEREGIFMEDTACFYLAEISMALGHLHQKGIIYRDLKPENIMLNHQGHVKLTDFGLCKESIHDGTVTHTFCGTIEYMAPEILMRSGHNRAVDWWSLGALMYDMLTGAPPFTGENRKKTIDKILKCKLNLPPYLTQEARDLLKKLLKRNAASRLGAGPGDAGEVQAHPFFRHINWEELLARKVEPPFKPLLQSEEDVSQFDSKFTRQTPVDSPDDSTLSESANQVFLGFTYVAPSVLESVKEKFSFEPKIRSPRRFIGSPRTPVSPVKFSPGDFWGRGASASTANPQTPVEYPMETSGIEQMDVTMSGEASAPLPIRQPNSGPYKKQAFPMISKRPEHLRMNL
UniProt Q8N5L8: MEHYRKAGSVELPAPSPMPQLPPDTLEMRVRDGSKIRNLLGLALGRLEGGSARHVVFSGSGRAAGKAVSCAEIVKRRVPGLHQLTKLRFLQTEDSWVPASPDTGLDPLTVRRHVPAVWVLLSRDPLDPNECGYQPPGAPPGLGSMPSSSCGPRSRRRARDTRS
UniProt Q9Y3I0: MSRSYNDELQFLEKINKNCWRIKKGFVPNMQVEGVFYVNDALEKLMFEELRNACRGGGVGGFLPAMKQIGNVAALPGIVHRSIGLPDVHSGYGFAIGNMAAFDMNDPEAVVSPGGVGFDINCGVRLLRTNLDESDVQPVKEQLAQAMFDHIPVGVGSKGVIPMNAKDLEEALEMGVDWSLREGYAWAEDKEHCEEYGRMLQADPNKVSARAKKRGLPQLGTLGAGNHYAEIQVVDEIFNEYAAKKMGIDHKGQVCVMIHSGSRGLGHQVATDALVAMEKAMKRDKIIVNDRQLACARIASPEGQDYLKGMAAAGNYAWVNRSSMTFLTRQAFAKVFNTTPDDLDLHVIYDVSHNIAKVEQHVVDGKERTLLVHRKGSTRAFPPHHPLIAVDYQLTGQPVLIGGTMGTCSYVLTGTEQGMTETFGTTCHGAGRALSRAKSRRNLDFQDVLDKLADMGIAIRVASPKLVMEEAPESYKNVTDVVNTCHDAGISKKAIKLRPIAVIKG
UniProt Q9Y265, whole entry, looked up: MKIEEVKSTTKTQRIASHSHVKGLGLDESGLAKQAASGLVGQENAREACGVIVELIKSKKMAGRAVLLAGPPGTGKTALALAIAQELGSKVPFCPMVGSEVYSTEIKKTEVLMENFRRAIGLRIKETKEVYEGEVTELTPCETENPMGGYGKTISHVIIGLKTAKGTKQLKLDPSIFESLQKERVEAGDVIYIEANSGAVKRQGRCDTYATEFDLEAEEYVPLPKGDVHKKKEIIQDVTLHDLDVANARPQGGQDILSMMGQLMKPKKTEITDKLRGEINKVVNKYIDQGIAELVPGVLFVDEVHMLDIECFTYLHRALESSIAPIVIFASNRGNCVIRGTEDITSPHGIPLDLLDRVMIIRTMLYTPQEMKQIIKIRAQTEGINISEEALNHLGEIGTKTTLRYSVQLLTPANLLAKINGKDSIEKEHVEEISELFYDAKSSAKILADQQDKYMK
UniProt P10301: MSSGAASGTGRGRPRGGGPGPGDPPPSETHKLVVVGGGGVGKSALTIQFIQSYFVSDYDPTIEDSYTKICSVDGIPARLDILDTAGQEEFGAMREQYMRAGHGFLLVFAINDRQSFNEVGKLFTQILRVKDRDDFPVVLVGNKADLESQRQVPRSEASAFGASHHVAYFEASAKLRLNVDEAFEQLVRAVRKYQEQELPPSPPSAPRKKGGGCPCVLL
UniProt Q8WWV3: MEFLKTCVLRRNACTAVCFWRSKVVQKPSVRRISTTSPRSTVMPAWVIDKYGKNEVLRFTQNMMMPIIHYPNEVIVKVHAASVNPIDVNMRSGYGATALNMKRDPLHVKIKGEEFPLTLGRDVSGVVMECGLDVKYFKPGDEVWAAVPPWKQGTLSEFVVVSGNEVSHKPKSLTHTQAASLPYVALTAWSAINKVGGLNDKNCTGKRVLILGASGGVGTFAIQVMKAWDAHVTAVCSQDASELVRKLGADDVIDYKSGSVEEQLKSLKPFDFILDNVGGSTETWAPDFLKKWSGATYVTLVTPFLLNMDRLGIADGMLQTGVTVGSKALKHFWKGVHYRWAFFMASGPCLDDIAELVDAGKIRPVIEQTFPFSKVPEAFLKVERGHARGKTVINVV
UniProt P04843: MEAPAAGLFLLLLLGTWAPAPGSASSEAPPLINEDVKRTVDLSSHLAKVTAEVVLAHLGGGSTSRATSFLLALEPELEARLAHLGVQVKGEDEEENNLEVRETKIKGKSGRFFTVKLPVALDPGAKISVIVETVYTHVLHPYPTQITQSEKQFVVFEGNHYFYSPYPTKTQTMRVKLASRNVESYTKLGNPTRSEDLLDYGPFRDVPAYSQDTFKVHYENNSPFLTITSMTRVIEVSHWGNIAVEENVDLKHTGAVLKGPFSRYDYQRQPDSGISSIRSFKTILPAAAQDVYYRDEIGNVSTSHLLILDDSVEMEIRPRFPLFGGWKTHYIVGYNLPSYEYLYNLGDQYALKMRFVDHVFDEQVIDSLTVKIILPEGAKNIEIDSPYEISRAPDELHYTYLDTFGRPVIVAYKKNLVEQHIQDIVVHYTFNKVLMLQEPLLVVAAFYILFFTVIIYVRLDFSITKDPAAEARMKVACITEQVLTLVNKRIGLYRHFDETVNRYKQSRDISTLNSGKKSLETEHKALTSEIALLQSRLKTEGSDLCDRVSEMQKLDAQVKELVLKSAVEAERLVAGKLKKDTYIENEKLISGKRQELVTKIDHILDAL
UniProt O95197: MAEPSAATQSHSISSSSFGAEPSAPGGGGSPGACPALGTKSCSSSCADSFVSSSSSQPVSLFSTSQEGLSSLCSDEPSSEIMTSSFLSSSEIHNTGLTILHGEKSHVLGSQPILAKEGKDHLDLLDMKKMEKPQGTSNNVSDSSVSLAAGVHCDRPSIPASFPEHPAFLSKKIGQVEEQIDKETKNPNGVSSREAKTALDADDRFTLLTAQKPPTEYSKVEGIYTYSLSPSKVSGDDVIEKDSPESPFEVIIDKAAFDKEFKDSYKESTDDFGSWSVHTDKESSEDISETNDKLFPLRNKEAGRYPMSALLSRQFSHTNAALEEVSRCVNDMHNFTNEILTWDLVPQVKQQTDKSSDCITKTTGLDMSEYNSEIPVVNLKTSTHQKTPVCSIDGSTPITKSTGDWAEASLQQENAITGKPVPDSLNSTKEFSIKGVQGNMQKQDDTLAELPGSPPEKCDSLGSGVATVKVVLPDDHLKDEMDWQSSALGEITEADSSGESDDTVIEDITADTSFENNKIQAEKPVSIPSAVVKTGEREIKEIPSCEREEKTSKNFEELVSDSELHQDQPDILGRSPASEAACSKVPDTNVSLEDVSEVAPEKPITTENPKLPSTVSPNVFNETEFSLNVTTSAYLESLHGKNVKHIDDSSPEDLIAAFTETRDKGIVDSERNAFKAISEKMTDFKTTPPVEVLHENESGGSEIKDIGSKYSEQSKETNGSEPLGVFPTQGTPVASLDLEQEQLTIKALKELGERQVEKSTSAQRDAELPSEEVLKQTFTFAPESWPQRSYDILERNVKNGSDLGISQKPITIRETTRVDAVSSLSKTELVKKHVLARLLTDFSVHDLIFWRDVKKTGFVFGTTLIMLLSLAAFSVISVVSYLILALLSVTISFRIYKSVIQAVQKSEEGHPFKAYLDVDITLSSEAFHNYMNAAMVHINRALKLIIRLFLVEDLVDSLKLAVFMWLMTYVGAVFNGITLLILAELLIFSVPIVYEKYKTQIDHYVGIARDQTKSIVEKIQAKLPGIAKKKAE
UniProt Q96S38: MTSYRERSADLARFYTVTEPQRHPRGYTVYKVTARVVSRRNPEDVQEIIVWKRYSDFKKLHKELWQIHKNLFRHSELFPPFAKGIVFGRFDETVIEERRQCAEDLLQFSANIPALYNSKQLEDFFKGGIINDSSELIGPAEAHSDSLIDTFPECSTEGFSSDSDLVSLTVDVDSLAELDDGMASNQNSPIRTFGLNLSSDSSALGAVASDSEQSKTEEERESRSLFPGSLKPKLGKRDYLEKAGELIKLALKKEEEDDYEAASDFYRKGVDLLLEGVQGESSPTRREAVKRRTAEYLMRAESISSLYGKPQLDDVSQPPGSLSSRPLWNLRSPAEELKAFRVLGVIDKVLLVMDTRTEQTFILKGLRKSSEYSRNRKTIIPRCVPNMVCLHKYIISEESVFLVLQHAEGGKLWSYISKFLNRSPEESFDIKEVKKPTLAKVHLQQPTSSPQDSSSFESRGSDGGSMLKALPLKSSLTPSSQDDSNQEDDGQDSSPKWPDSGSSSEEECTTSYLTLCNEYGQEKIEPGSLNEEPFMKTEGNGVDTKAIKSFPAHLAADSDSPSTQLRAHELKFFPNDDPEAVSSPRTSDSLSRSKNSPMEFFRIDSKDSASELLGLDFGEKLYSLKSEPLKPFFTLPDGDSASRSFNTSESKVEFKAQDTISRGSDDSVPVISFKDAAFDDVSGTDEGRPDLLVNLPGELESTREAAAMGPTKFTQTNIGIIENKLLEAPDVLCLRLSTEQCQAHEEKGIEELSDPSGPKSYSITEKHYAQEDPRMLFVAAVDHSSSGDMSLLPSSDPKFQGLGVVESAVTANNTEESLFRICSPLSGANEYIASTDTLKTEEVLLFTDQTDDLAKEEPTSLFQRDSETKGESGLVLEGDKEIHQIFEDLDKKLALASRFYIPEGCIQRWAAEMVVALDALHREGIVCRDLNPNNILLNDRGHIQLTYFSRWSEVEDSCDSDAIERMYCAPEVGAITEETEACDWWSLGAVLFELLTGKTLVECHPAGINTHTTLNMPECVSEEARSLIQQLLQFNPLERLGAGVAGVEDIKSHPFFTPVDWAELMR

How the values were obtained:
Test in all cases: log2 fold change, soluble protein after heating vs DMSO (PISA); higher = thermal stabilisation; K562 lysate, 10 uM; active = over 0.2 and 3.5 SD of the protein, either way, in both replicates (recomputed)
[1] = compound: C#Cc1cccc(Nc2ncnc3cc(OCCOC)c(OCCOC)cc23)c1 [erlotinib]
In short: (§1)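 Dounce homogenisation of K562 pellets in PBS pH 7.4 with 1 mM MgCl2 produced a crude extract, used at 1 mg/mL protein. Exposure to 10 μM compound lasted 30 min, and aliquots were then heated for 3 min across 48°C-58°C, pooled and brought to 0.5% NP-40 at 4°C. The supernatant after 21,000xg for 90 min was quantified by TMTpro 16plex LC-MS/MS with channel sums equalised. Duplicate values are given as log-two fold change in thermal stability relative to solvent controls.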

[2] = compound: C/C(=N\NC(=O)C1=CC(=CC=C1)S(=O)(=O)N2CCOCC2)/C3=C(C=CC(=C3)Cl)O
In short: as §1

[3] = compound: C1=CC(=CC=C1C2=NC3=C(N2)C=C(C=C3)C(=O)N)OC4=CC=C(C=C4)Cl
In short: as §1

[4] = compound: C1=CC2=C(C=CC(=C2)/C=C\3/C(=O)NC(=NCC4=CC=CS4)S3)N=C1
In short: as §1

[5] = compound: C1=CC2=NC=CN=C2C=C1/C=C/3\C(=O)NC(=O)S3
In short: as §1

[6] = compound: C1=CC=C(C=C1)C2=NC(=C(N2)C3=CC=NC=C3)C4=CC(=C(C=C4)Cl)O
In short: as §1

[7] = compound: C1=CC=C2C(=C1)C3=NNC4=CC=CC(=C43)C2=O
In short: as §1

[8] = compound: C1CCN(C1)C(=O)NC2=CC=CC(=C2)NC3=NC=C(C(=N3)NCCC4=CN=CN4)Br
In short: as §1

[9] = compound: C1CN(CCC1(CC2=CC=C(C=C2)Cl)N)C3=NC=NC4=C3C=CN4
In short: as §1

[10] = compound: C1COCCN1CCN2C3=CC=CC=C3N=C2NC(=O)C4=CC(=CC=C4)[N+](=O)[O-] [IRAK-1-4 Inhibitor I]
In short: as §1

[11] = compound: C=CC(=O)N1CCC[C@@H](n2nc(-c3ccc(Oc4ccccc4)cc3)c3c(N)ncnc32)C1 [ibrutinib]
In short: as §1

[12] = compound: CC(=O)c1cnc2ccc(-c3cc(Cl)c(O)c(Cl)c3)nc2c1N[C@H]1CC[C@H](CN(C)C)CC1
In short: as §1

[13] = compound: CC(C)(C)Cn1c(N)nc2ccc(-c3[nH]c(C(C)(C)C)nc3-c3ccc(F)cc3)nc21 [ralimetinib]
In short: as §1

[14] = compound: CC(C)(O)CC(=O)NCCn1ccc2ncnc(Nc3ccc(Oc4cccc(C(F)(F)F)c4)c(Cl)c3)c21
In short: as §1

[15] = compound: CC(C)C1=C2N=C(C=C(N2N=C1)NCC3=CC=CC=C3)NCCCCCCN
In short: as §1

[16] = compound: CC1=C(C(CC(=O)N1)C2=CC=C(C=C2)C(F)(F)F)C(=O)NC3=C(C=C4C(=C3)C=NN4)F
In short: as §1

[17] = compound: CC1=C(C2=C(C=C1)C(=O)C3=CC=CC=C3N2CCCN)C
In short: as §1

[18] = compound: CC1=C(C=C(C=C1)NC(=O)C2=CC(=CC=C2)C(C)(C)C#N)NC3=CC4=C(C=C3)N=CN(C4=O)C
In short: as §1

[19] = compound: CC1=C(C=C(C=C1)NC(=O)C2=CC(=CC=C2)N(C)C)NC(=O)C3=CC=C(C=C3)O
In short: as §1

[20] = compound: CC1=CC=C(C=C1)SC2=C3C=C(SC3=CN=C2)C(=O)N
In short: as §1

Target | log2 fold change [1] | log2 fold change [2] | log2 fold change [3] | log2 fold change [4] | log2 fold change [5] | log2 fold change [6] | log2 fold change [7] | log2 fold change [8] | log2 fold change [9] | log2 fold change [10] | log2 fold change [11] | log2 fold change [12] | log2 fold change [13] | log2 fold change [14] | log2 fold change [15] | log2 fold change [16] | log2 fold change [17] | log2 fold change [18] | log2 fold change [19] | log2 fold change [20]
RPL36AL (UniProt Q969Q0) | inactive: -0.036 | inactive: -0.098 | inactive: -0.012 | inactive: 0.061 | inactive: -0.029 | inactive: 0.029 | inactive: 0.048 | inactive: 0.049 | inactive: -0.05 | inactive: -0.109 | inactive: -0.038 | inactive: 0.004 | inactive: -0.018 | inactive: 0.088 | inactive: -0.004 | inactive: -0.001 | inactive: 0.068 | inactive: -0.038 | inactive: 0.013 | inactive: 0.052
RPS26P11 (UniProt Q5JNZ5) | inactive: -0.028 | inactive: -0.021 | inactive: -0.015 | inactive: -0.01 | inactive: 0.039 | inactive: 0.005 | inactive: -0.046 | inactive: -0.045 | inactive: 0.008 | inactive: 0.001 | inactive: -0.037 | inactive: 0.004 | inactive: 0.008 | inactive: -0.034 | inactive: -0.019 | inactive: -0.013 | inactive: -0.034 | inactive: 0.024 | inactive: 0.025 | inactive: 0.016
S100A13 (UniProt Q99584) | inactive: 0.012 | inactive: 0.072 | inactive: 0.029 | inactive: 0.007 | inactive: -0.007 | inactive: -0.025 | inactive: 0.037 | inactive: 0.055 | inactive: 0.035 | inactive: -0.003 | inactive: 0.04 | inactive: 0.026 | inactive: -0.005 | inactive: 0.014 | inactive: 0.034 | inactive: -0.025 | inactive: 0.015 | inactive: -0.042 | inactive: -0.015 | inactive: -0.01
RPS19 (UniProt P39019) | inactive: -0.017 | inactive: -0.002 | inactive: -0.016 | inactive: -0.04 | inactive: -0.004 | inactive: -0.006 | inactive: 0.025 | inactive: 0.007 | inactive: -0.015 | inactive: -0.01 | inactive: -0.004 | inactive: 0.013 | inactive: 0.002 | inactive: -0.003 | inactive: 0.029 | inactive: -0.03 | inactive: -0.008 | inactive: -0.026 | inactive: -0.01 | inactive: 0.021
RPS6KB1 (UniProt P23443) | inactive: -0.017 | inactive: -0.018 | inactive: -0.034 | inactive: 0.013 | inactive: -0.001 | inactive: 0.083 | active: 0.322 | inactive: 0.085 | inactive: 0.027 | inactive: 0.028 | inactive: 0.024 | active: 0.355 | inactive: 0.026 | inactive: 0.007 | inactive: -0.027 | inactive: 0 | inactive: 0.01 | inactive: -0.029 | inactive: -0.01 | inactive: -0.001
RPP25L (UniProt Q8N5L8) | inactive: 0.021 | inactive: -0.051 | inactive: 0.017 | inactive: -0.023 | inactive: 0.019 | inactive: 0.063 | inactive: -0.01 | inactive: 0.082 | inactive: 0.011 | inactive: 0.113 | inactive: -0.064 | inactive: -0.001 | inactive: -0.024 | inactive: -0.023 | inactive: -0.079 | inactive: -0.017 | inactive: -0.019 | inactive: 0.064 | inactive: -0.023 | inactive: -0.095
RTCB (UniProt Q9Y3I0) | inactive: -0.018 | inactive: -0.011 | inactive: -0.035 | inactive: -0.011 | inactive: -0.001 | inactive: 0.01 | inactive: -0.003 | inactive: -0.011 | inactive: -0.001 | inactive: -0.008 | inactive: 0.015 | inactive: 0.022 | inactive: 0.015 | inactive: 0.024 | inactive: 0.007 | inactive: -0.011 | inactive: 0.013 | inactive: -0.056 | inactive: 0.017 | inactive: 0.04
RUVBL1 (UniProt Q9Y265) | inactive: -0.015 | inactive: -0.09 | inactive: 0.016 | inactive: -0.018 | inactive: 0 | inactive: 0.01 | inactive: 0.019 | inactive: 0.004 | inactive: 0.001 | inactive: 0.016 | inactive: 0.001 | inactive: 0.004 | inactive: -0.008 | inactive: 0.003 | inactive: 0.003 | inactive: -0.004 | inactive: -0.01 | inactive: -0.005 | inactive: -0.02 | inactive: 0.011
RRAS (UniProt P10301) | inactive: -0.001 | inactive: 0.05 | inactive: -0.026 | inactive: -0.02 | inactive: 0.018 | inactive: 0.004 | inactive: 0.057 | inactive: -0.003 | inactive: -0.041 | inactive: 0.029 | inactive: 0.023 | inactive: 0.041 | inactive: 0.041 | inactive: 0.026 | inactive: -0.026 | inactive: 0.001 | inactive: 0.081 | inactive: 0.015 | inactive: 0.048 | inactive: -0.017
RTN4IP1 (UniProt Q8WWV3) | inactive: -0.028 | inactive: 0.031 | inactive: -0.028 | inactive: 0.065 | inactive: -0.017 | inactive: -0.003 | inactive: 0.022 | inactive: 0.033 | inactive: -0.016 | inactive: 0.011 | inactive: 0.073 | inactive: 0.02 | inactive: 0.012 | inactive: 0.028 | inactive: -0.042 | active: -0.398 | inactive: -0.011 | inactive: -0.008 | inactive: -0.015 | inactive: -0.033
RPS15A (UniProt P62244) | inactive: -0.01 | inactive: -0.121 | inactive: 0.004 | inactive: 0.007 | inactive: -0.007 | inactive: -0.023 | inactive: -0.007 | inactive: 0.002 | inactive: -0.008 | inactive: -0.001 | inactive: -0.032 | inactive: 0.011 | inactive: 0.036 | inactive: 0.011 | inactive: -0.006 | inactive: -0.003 | inactive: -0.071 | inactive: -0.036 | inactive: -0.018 | inactive: 0.016
RPS9 (UniProt P46781) | inactive: -0.034 | inactive: 0.022 | inactive: -0.03 | inactive: -0.054 | inactive: -0.016 | inactive: -0.011 | inactive: 0.011 | inactive: 0.025 | inactive: -0.018 | inactive: -0.017 | inactive: -0.02 | inactive: 0.015 | inactive: 0.016 | inactive: 0.026 | inactive: -0.007 | inactive: -0.038 | inactive: -0.095 | inactive: -0.048 | inactive: 0.006 | inactive: 0.043
RPN1 (UniProt P04843) | inactive: -0.001 | inactive: -0.017 | inactive: 0 | inactive: 0.004 | inactive: 0.004 | inactive: -0.003 | inactive: -0.02 | inactive: -0.022 | inactive: 0.02 | inactive: 0.027 | inactive: -0.017 | inactive: -0.006 | inactive: -0.006 | inactive: -0.035 | inactive: -0.016 | inactive: -0.002 | inactive: 0.025 | inactive: 0.011 | inactive: -0.002 | inactive: 0.001
RPL5 (UniProt P46777) | inactive: -0.005 | inactive: 0.025 | inactive: 0.004 | inactive: 0.008 | inactive: -0.004 | inactive: -0.001 | inactive: -0.03 | inactive: 0.014 | inactive: -0.012 | inactive: 0 | inactive: -0.021 | inactive: 0.004 | inactive: 0.003 | inactive: -0.024 | inactive: 0.009 | inactive: -0.013 | inactive: -0.1 | inactive: -0.003 | inactive: -0.005 | inactive: 0.041
RTN3 (UniProt O95197) | inactive: 0.027 | inactive: -0.018 | inactive: -0.007 | inactive: -0.024 | inactive: -0.014 | inactive: 0.012 | inactive: -0.03 | inactive: -0.071 | inactive: 0.007 | inactive: 0.016 | inactive: -0.009 | inactive: 0.013 | inactive: 0.012 | inactive: -0.034 | inactive: -0.028 | inactive: 0.001 | inactive: -0.051 | inactive: -0.033 | inactive: 0.024 | inactive: -0.007
RPS6KC1 (UniProt Q96S38) | inactive: 0.003 | inactive: -0.103 | inactive: 0.006 | inactive: -0.01 | inactive: 0 | inactive: 0.023 | inactive: 0.003 | inactive: -0.066 | inactive: 0.005 | inactive: -0.004 | inactive: 0.015 | inactive: 0.046 | inactive: 0.008 | inactive: -0.019 | inactive: -0.006 | inactive: -0.047 | inactive: -0.029 | inactive: 0.007 | inactive: 0.049 | inactive: -0.001

A different layout for part of the listing above.
Target	log2 fold change [1]	log2 fold change [2]	log2 fold change [3]	log2 fold change [4]	log2 fold change [5]	log2 fold change [6]	log2 fold change [7]	log2 fold change [8]	log2 fold change [9]	log2 fold change [10]	log2 fold change [11]	log2 fold change [12]	log2 fold change [13]	log2 fold change [14]	log2 fold change [15]	log2 fold change [16]	log2 fold change [17]	log2 fold change [18]	log2 fold change [19]	log2 fold change [20]
RTCB (UniProt Q9Y3I0)	inactive: -0.018	inactive: -0.011	inactive: -0.035	inactive: -0.011	inactive: -0.001	inactive: 0.01	inactive: -0.003	inactive: -0.011	inactive: -0.001	inactive: -0.008	inactive: 0.015	inactive: 0.022	inactive: 0.015	inactive: 0.024	inactive: 0.007	inactive: -0.011	inactive: 0.013	inactive: -0.056	inactive: 0.017	inactive: 0.04
RUVBL1 (UniProt Q9Y265)	inactive: -0.015	inactive: -0.09	inactive: 0.016	inactive: -0.018	inactive: 0	inactive: 0.01	inactive: 0.019	inactive: 0.004	inactive: 0.001	inactive: 0.016	inactive: 0.001	inactive: 0.004	inactive: -0.008	inactive: 0.003	inactive: 0.003	inactive: -0.004	inactive: -0.01	inactive: -0.005	inactive: -0.02	inactive: 0.011
RRAS (UniProt P10301)	inactive: -0.001	inactive: 0.05	inactive: -0.026	inactive: -0.02	inactive: 0.018	inactive: 0.004	inactive: 0.057	inactive: -0.003	inactive: -0.041	inactive: 0.029	inactive: 0.023	inactive: 0.041	inactive: 0.041	inactive: 0.026	inactive: -0.026	inactive: 0.001	inactive: 0.081	inactive: 0.015	inactive: 0.048	inactive: -0.017
RTN4IP1 (UniProt Q8WWV3)	inactive: -0.028	inactive: 0.031	inactive: -0.028	inactive: 0.065	inactive: -0.017	inactive: -0.003	inactive: 0.022	inactive: 0.033	inactive: -0.016	inactive: 0.011	inactive: 0.073	inactive: 0.02	inactive: 0.012	inactive: 0.028	inactive: -0.042	active: -0.398	inactive: -0.011	inactive: -0.008	inactive: -0.015	inactive: -0.033
